# Earlier results, collected in PMC7591906, “pHLIP ICG for delineation of tumors and blood flow during fluorescence-guided surgery” (Scientific Reports, 2020).
# Peptide text beside a SMILES is read from it. * marks the point of attachment. X1 = CC1(C)C(/C=C/C=C/C=C/C=C2/N(CCCCCC(=O)NCCN3C(=O)CC(*)C3=O)c3ccc4ccccc4c3C2(C)C)=[N+](CCCCS(=O)(=O)[O-])c2ccc3ccccc3c21
# Test system: malignant bladder and upper tract lesions
# Settings: cited from earlier work
# [1] = ex vivo application to human bladders, NIR imaging vs pathology
smiles,measurement,setting,value
CC(C)C[C@H](NC(=O)[C@H](Cc1ccc(O)cc1)NC(=O)[C@H](C)NC(=O)[C@H](CCCNC(=N)N)NC(=O)[C@H](Cc1c[nH]c2ccccc12)NC(=O)[C@@H]1CCCN1C(=O)[C@H](CC(N)=O)NC(=O)[C@H](CCC(N)=O)NC(=O)[C@H](CC(=O)O)NC(=O)[C@H](CC(=O)O)NC(=O)[C@H](CSC1CC(=O)N(CCNC(=O)CCCCCN2/C(=C/C=C/C=C/C=C/C3=[N+](CCCCS(=O)(=O)[O-])c4ccc5ccccc5c4C3(C)C)C(C)(C)c3c2ccc2ccccc32)C1=O)NC(=O)[C@H](C)N)C(=O)N[C@@H](CC(=O)O)C(=O)N[C@@H](CC(C)C)C(=O)N[C@@H](CC(C)C)C(=O)N[C@@H](Cc1ccccc1)C(=O)N1CCC[C@H]1C(=O)N[C@H](C(=O)N[C@@H](CC(=O)O)C(=O)N[C@H](C(=O)N[C@@H](CC(C)C)C(=O)N[C@@H](CC(C)C)C(=O)N[C@@H](CC(C)C)C(=O)N[C@@H](CC(=O)O)C(=O)N[C@@H](CC(C)C)C(=O)N[C@@H](CC(C)C)C(=O)N[C@@H](Cc1c[nH]c2ccccc12)C(=O)N[C@@H](C)C(=O)O)[C@@H](C)O)[C@@H](C)O (stereo partly shown) [pHLIP ICG] (H-AC(X1)DDQNPWRAYLDLLFPTDTLLLDLLWA-OH),"Sensitivity, malignant bladder lesions",[1],97%
same,"Specificity, malignant bladder lesions",[1],100%
same,"Sensitivity, malignant upper tract lesions","ex vivo, NIR imaging (78.9% white light imaging)",100%
same,"Specificity, malignant upper tract lesions","ex vivo, NIR imaging",100%
